Results are given in words; binding and its absence hold for the method and conditions named. Tags and fused reporters may be left off the sequences shown.
Target: T1, GST fusion protein of mouse CLDN11 C-terminus lacking the two C-terminal amino acids (HV sequence) (aa 179-205) (mouse) (UniProt Q60771)
T1 sequence: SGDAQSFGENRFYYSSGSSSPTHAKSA
Experiment: pull-down; GST-fused proteins on Glutathione Sepharose 4B beads incubated with eluted MBP-fused proteins at 4 °C overnight in buffer A (50 mM Tris-HCl pH 8.0, 50 mM NaCl, 1 mM EDTA, 1 mM DTT); washed three times; SDS-PAGE and Coomassie Brilliant Blue staining; both purified

binding: no binding
B1: MBP fusion protein of the PDZ1 domain (aa 19-113) of mouse ZO1 (domain or fragment, UniProt P39447 19-113)
chain: WEQHTVTLHRAPGFGFGIAISGGRDNPHFQSGETSIVISDVLKGGPAEGQLQENDRVAMVNGVSMDNVEHAFAVQQLRKSGKNAKITIRRKKKVQ

Reference: article PMC11782696, “Claudin-11 regulates immunological barrier formation and spermatogonial proliferation through stem cell factor” (Communications Biology, 2025)
